Measured values from PubChem BioAssay AID1487 (National Center for Advancing Translational Sciences (NCATS), 2009).
Among all 200,000 compounds or so, about 25 (0.01%) were called active. Inconclusive means that the source gave no clear call. Such entries were picked first, then a sample of the others. The call rests on the fitted dose curve; in most records, active means well fitted inhibition curve with a large enough effect in the signal ratio, with a control signal flat (not every such curve was filed as active); inconclusive means small, poorly fitted or top-dose-only effect, or effect the other way, or a change in a side signal; inactive means flat fitted curve, though single readings scatter; the % refers to the signal ratio. A potency beside an inconclusive call is a rough fit, not a confirmed value.

Test: qHTS Assay for Modulators of Lamin A Splicing
Conditions: HeLa LMNA splicing GFP/RFP minigene ratio, 48 h; ratio change, negative = inhibition: at 46.1 µM (top of the series) unless noted
Procedure, shortened: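 Read-out is the ratio of GFP to DsRed2 object intensity, acquired by 488 nm laser-scanning cytometry on HeLa lamin A-EGFP minigene reporter cells. Compound incubation 48 hrs at 37 °C in Opti-MEM with 2% FBS; DMSO 0.5% final.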
On the % scale 0 is the no-effect control and ±100 the full control effect; potency means the concentration at half of the fitted maximal effect.

SMILES | ratio change, negative = inhibition | Potency
CC(C)CCNC(=O)NC(=O)COc1c(F)c(F)cc(F)c1F | inconclusive: 3.26% | 
CC(=O)Nc1cccc(NC(=O)c2ccc([N+](=O)[O-])cc2Cl)c1 | inconclusive: 10.1% | 
O=C(Nc1ncc(Cc2cccc([N+](=O)[O-])c2)s1)c1ccco1 |  | inconclusive: 7.94 µM [activator, partial curve]
O=C(CCc1ccccc1)NCCC1=CCCCC1 | inactive | 
Cc1ccc(S(=O)(=O)N/N=C/c2cccn2-c2ccc(Cl)cc2)cc1 | inactive | 
Fc1ccccc1Cn1nnc(-c2ccc3c(c2)OCO3)n1 | inconclusive: 18.6% | 
CCCOc1cccc(C(=O)NC(=S)Nc2ccc(N3CCN(C)CC3)cc2)c1 | inactive | 
COc1ccccc1CCNC(=O)CCn1c(=O)c2cccn2c2ccc(F)cc21 | inconclusive: -2.86% [at 46 µM] | 
Cc1ccc(-c2cc(C(=O)NCc3ccccn3)c3ccccc3n2)cc1 | inactive | 
O=S(=O)(Nc1cccc2ncccc12)c1cccs1 |  | inconclusive: 12.6 µM [falling, partial curve]
Cc1sc2nc(SCC(=O)NCCO)n(C)c(=O)c2c1C | inactive | 
CCOC(=O)c1sc2cc([N+](=O)[O-])cc(SCC(=O)OC)c2c1N | inactive | 
C=CCOc1ccc(C2CC(C)=NN2c2ccccc2)cc1 (centres undefined) | inconclusive: -21.8% | 
CC(C)c1ccccc1OCCNC(=O)c1cncc(Br)c1 |  | inconclusive: 35.5 µM [rising, partial curve, poor fit]
CCCSc1nc(=O)c2c(n1C)NC(=O)CC2c1cccc(F)c1F (centres undefined) | inconclusive: 18% [at 46 µM] | 
CSc1ccc(Cl)c(C(=O)OCC(=O)N(C)CCC#N)c1 | inconclusive: 19.8% [at 46 µM] | 
COc1ccc(CNc2cc(-c3cccc(C#N)c3)ncn2)c(OC)c1 | inconclusive: -8.2% | 
COc1ccc(Cn2c(=O)[nH]c3cc(C(=O)Nc4ccc(N5CCN(C)CC5)cc4)ccc32)cc1 | inconclusive: -21.3% | 
COc1cccc(CN(C)CC(=O)Nc2ccccc2C(C)C)c1 | inactive | 
Cn1c2ccccc2c(=O)c2c(O)cccc21 | inconclusive: -5.38% [at 46 µM] | 
Cc1cccc(NC(=O)C(c2ccccc2)N2Cc3ccccc3C2=O)c1C (centres undefined) | inactive | 

SMILES | ratio change, negative = inhibition | Potency
COC(=O)c1c(NC(=O)c2ccc(Br)o2)sc(C)c1C | inconclusive: 2.2% | 
C=C(C)CNC(=S)Nc1cccc(S(=O)(=O)NC2=NCCC2)c1 | inactive | 
Cc1cccc(NC(=O)CSc2nnc(-c3cccs3)o2)c1 | inconclusive: -31.4% [at 46 µM] | 
Oc1ccc(-c2n[nH]c(=S)n2Cc2ccccc2)cc1 | inactive | 
Cc1ccc(SCC(=O)Nc2ccccc2C(=O)N2CCOCC2)cc1 | inconclusive: -1.51% | 
CC1CCC2(CC1)NC(=O)N(Cc1nc(-c3ccccc3)no1)C2=O (centres undefined) | inconclusive: -35.8% | 
Cc1c(Cl)cccc1NC(=O)N1CCN(Cc2cc(=O)n3nc(-c4ccccc4F)sc3n2)CC1 | inconclusive: 2.5% [at 46 µM] | 
CCCc1[nH]n(-c2nc3ccccc3s2)c(=O)c1C=NCCN1CCOCC1 | inactive | 
COc1ccc(NC(=O)c2cc(-c3ccccc3)nc3c2c(C)nn3-c2ccccc2)c(OC)c1 | inconclusive: 2.94% | 
O=C(CNC(=O)c1ccccc1)OCC(=O)N1c2ccccc2Sc2ccccc21 | inactive | 
CCNC(=S)N/N=C/c1cn(Cc2ccc(F)cc2)c2ccccc12 |  | inconclusive: 35.5 µM [falling, single point]
Cc1nnc(SCC(=O)Nc2ccc3c(c2)OCO3)n(N)c1=O | inconclusive: 6.55% [at 46 µM] | 
Cc1ccccc1CNC(=O)C(=O)NCC(c1ccco1)S(=O)(=O)c1ccc(F)cc1 (centres undefined) | inconclusive: 0.509% [at 46 µM] | 
Cc1[nH]nc2ncc(C(=O)c3cc(F)ccc3O)cc12 | inconclusive: 31.5% | 
CCOC(=O)c1c(NC(=O)C(C)S(=O)(=O)c2cn(CC)c3ccccc23)sc2c1CCCC2 (centres undefined) | inconclusive: -41.5% | 
O=c1[nH]c(=O)c2nc(-c3ccc(Cl)cc3)cnc2[nH]1 | inconclusive: 25.5% [at 46 µM] | 
CN(C)c1ccc(C(CNC(=O)COc2ccccc2)N2CCOCC2)cc1 (centres undefined) | inconclusive: 7.52% [at 46 µM] | 
Cc1ccc(N/C(N)=N/c2nc(C)cc(C)n2)cc1 | inconclusive: -16% | 
CCOc1ccc(Oc2nc(N(CC)CC)nc(N3CCOCC3)n2)nn1 |  | inconclusive: 10 µM [inhibitor, partial curve]
CC1CCC2(CC1)NC(=O)N(CC(=O)N1CCc3ccccc3C1)C2=O (centres undefined) | inactive: -3.78% [at 9.22 µM] | 
Cc1nc2cc(C(=O)N3CCc4ccccc43)ccc2n1-c1ccc(F)c(F)c1 | inactive | 

SMILES | ratio change, negative = inhibition | Potency
O=C(Nc1nc(-c2cc3ccccc3oc2=O)cs1)c1ccc(Br)o1 | inactive | 
O=C(NC(=S)Nc1ccc(CN2CCOCC2)cc1)c1cccc([N+](=O)[O-])c1 | inconclusive: -9.74% | 
O=C(CCc1ccc(S(=O)(=O)NCc2ccccc2)cc1)N1CCN(Cc2ccc3c(c2)OCO3)CC1 |  | inconclusive: 14.1 µM [fluorescent, single point]
COc1cccc(Cn2c(=O)c(-c3cccc(C#N)c3)nc3cnc(OC)nc32)c1 | inconclusive: -21.5% | 
CC1CC(C)CN(C(=S)Nc2ccc3nc4n(c(=O)c3c2)CCCCC4)C1 (centres undefined) |  | inconclusive: 15.8 µM [falling, single point]
O=C(O)c1ccc(COc2ccc3ccccc3c2/C=C2/NC(=O)N(c3ccccc3)C2=O)cc1 | inconclusive: 33.9% | 
O=C(CN(C(=O)CNC(=O)c1ccco1)c1ccc2c(c1)OCO2)NC1CCCCC1 | inactive | 
O=C1c2ccccc2S(=O)(=O)N1CC1CC(c2ccccc2)=NO1 (centres undefined) | inactive | 
COc1ccc(CCNC(=O)C2CCN(C(=O)c3cccs3)CC2)cc1 | inconclusive: 16.4% [at 46 µM] | 
CCN1c2ccccc2NC2N=C(OC)C(c3ccccc3)C21 (centres undefined) |  | inconclusive: 35.5 µM [cytotoxic, partial curve]
CCCCOC(=O)C(C)c1c(C)[nH]c(=S)[nH]c1=O (centres undefined) | inactive | 
CCCc1c(C)nc2ccc(OC)cc2c1SCCC(=O)O | inactive | 
C[C@@H]([C@H](O)c1ccc(O)cc1)N1CCC(Cc2ccccc2)CC1 | inconclusive: -7.79% | 
COc1cccc(N(C(=O)CCl)C(C(=O)NCCc2ccccc2)c2cccs2)c1 (centres undefined) |  | inconclusive: 35.5 µM [cytotoxic, single point]
Cc1ccc(C)n1-c1ncc(Br)cn1 | inconclusive: -16.8% [at 46 µM] | 
Cc1cccc(/C=c2\s/c(=C\C(=O)C(C)(C)C)[nH]c2=O)c1 | inconclusive: -21.9% | 
Cc1cc(C)c(NC(=O)C2CCN(c3cnccn3)CC2)c(C)c1 | inactive | 
COC(=O)CC(c1ccc(C(C)C)cc1)n1cccc1 (centres undefined) | inconclusive: 11.2% [at 46 µM] | 
CN(CCNC(=O)c1cn(C)c2ccc(S(=O)(=O)N(C)C)cc2c1=O)CCc1ccccc1 | inactive | 
O=C(NCc1ccc2c(c1)OCO2)c1ccc(CN2CCc3ccccc3C2)cc1 | inconclusive: -26% | 
CCCCC(=O)N(Cc1ccc(-c2ccccc2-c2nn[nH]n2)cc1)C(C(=O)O)C(C)C (centres undefined) | inconclusive: -16.9% | 

SMILES | ratio change, negative = inhibition | Potency
O=C(O)C1CCC(N2C(=O)C3CCCCC3C2=O)CC1 (centres undefined) | inactive | 
Cc1nn(Cc2ccccc2)c(C)c1NC(=O)CSc1n[nH]c(C)c1[N+](=O)[O-] | inconclusive: -10.4% | 
CCc1ccc(-n2cnc3cc(C(=O)NCc4ccc(C)cc4)ccc32)cc1 | inconclusive: -29.1% [at 46 µM] | 
COc1ccc(-c2nc3cnc(N4CCOCC4)nc3n(C)c2=O)cc1 | inconclusive: -34.5% | 
Nc1nc2c(s1)C(=O)CC(c1ccccc1)C2 (centres undefined) | inconclusive: 11.5% | 
COc1cnn(Cc2ccccc2)c(=O)c1SCc1ccccc1 | inconclusive: 8.97% | 
CC(C)c1ccc(O)c(NC(=S)NC(=O)CCc2ccccc2)c1 | inconclusive: 20.2% [at 46 µM] | 
CCCOc1ccc(-c2cc(C(=O)NCC3CCCO3)c3ccccc3n2)cc1 (centres undefined) | inconclusive: 0.105% [at 46 µM] | 
CC(NC(=O)C1CCN(S(=O)(=O)c2cc([N+](=O)[O-])ccc2Cl)CC1)c1ccccc1 (centres undefined) | inactive | 
Cc1ccc(OCCOCCOc2ccc(Br)cc2/C=N\NC(=O)c2ccncc2)cc1 |  | inconclusive: 35.5 µM [fluorescent, single point]
COc1cc(C(=O)NC2=NCCS2)ccc1OCc1c(C)noc1C | inconclusive: 9.49% | 
S=C(NNc1ccc2ccccc2c1)NC1CCCCC1 |  | inconclusive: 35.5 µM [falling, single point]
NC(=O)NNc1ncc(C(F)(F)F)cc1Cl | inactive: 9.37% [at 9.22 µM] | 
CC(/C=N/NC(=O)Cc1cccn1C)=C\c1ccco1 | inactive | 
Cc1ccc(C)c(SCc2noc(C(=O)NC(C)C)c2C(=O)O)c1 | inconclusive: 14.1% [at 0.0737 µM] | 
CC1=N/C(=C\c2ccc3c(c2)OCO3)C(=O)N1c1ccc(C(=O)O)cc1 | inactive | 
CCOc1ccccc1OCC(=O)NC1CCCCC1 | inactive | 
O=C(CCl)Nc1ccccc1Sc1ccc(Cl)cc1 |  | inconclusive: 35.5 µM [cytotoxic, single point]
Cc1ccc(C)c(N2CCN(C(=O)C3CCN(c4nc5ccc(C)cc5[nH]4)CC3)CC2)c1 | inconclusive: -26.1% [at 46 µM] | 
Cc1ccc(N2CCN(C(=O)c3c(C)oc4ncn(CC(C)C)c(=O)c34)CC2)c(C)c1 | inactive | 
CCOC(=O)C1=C(N)OC2=C(C(=O)CCC2)C1c1sccc1C (centres undefined) | inactive | 

Random excerpt: three compounds from above.
SMILES | ratio change, negative = inhibition | Potency
CC(C)c1ccc(O)c(NC(=S)NC(=O)CCc2ccccc2)c1 | inconclusive: 20.2% [at 46 µM] | 
Cc1nn(Cc2ccccc2)c(C)c1NC(=O)CSc1n[nH]c(C)c1[N+](=O)[O-] | inconclusive: -10.4% | 
O=C(CCl)Nc1ccccc1Sc1ccc(Cl)cc1 |  | inconclusive: 35.5 µM [cytotoxic, single point]

A draw from above in order of heavy-atom count, rising.
SMILES | ratio change, negative = inhibition | Potency
O=C(O)C1CCC(N2C(=O)C3CCCCC3C2=O)CC1 (centres undefined) | inactive | 
CC(C)c1ccc(O)c(NC(=S)NC(=O)CCc2ccccc2)c1 | inconclusive: 20.2% [at 46 µM] | 
CC1=N/C(=C\c2ccc3c(c2)OCO3)C(=O)N1c1ccc(C(=O)O)cc1 | inactive | 
